Data published in PMC11017252, “Copper(II) Complexes with 2,2′:6′,2″-Terpyridine Derivatives Displaying Dimeric Dichloro−μ–Bridged Crystal Structure: Biological Activities from 2D and 3D Tumor Spheroids to In Vivo Models” (Journal of Medicinal Chemistry, 2024).

How the values were obtained:
[1] = test system: HCT116DoxR (Dox-resistant colorectal carcinoma cell line); test: MTS cell viability assay, 2D culture, HCT116DoxR; settings: IC50 fibroblasts / IC50 HCT116DoxR, 48 h
[2] = test system: A2780 (ovarian carcinoma cell line); test: MTS cell viability assay, 2D culture, A2780; type: cell-based, human; settings: IC50 fibroblasts / IC50 A2780, 48 h
HCT116DoxR cells [3] = test: Copper internalization and subcellular fractionation by ICP-AES; type: cell-based, human; settings: 6 h, 20× the IC50
[4] = test system: HCT116 (colorectal carcinoma cell line); test: MTS cell viability assay, 2D culture, HCT116; type: cell-based, human; settings: IC50 fibroblasts / IC50 HCT116, 48 h
HCT116DoxR cells [5] = test: Cellular internalization by fluorescence and confocal microscopy; type: cell-based, human; settings: 10× the IC50; for intracellular localization (fluorescence): 3 and 6 h
[6] = Abcam ab109719 and Cell Signaling #9038 kits

Row | Compound | SI (HCT116DoxR) [1] | SI (A2780) [2] | SI (HCT116) [4] | other results
1 | c1ccc(-c2cc(-c3cccc4ccccc34)cc(-c3ccccn3)n2)nc1 [L1] | 285.1 | – | – | –
2 | c1ccc(-c2cc(-c3ccccn3)nc(-c3ccccn3)c2)nc1 [L7] | 110.1 | – | – | –
3 | F[P-](F)(F)(F)(F)F.F[P-](F)(F)(F)(F)F.[Cl][Cu].[Cl][Cu].c1ccc(-c2cc(-c3ccccn3)nc(-c3ccccn3)c2)nc1.c1ccc(-c2cc(-c3ccccn3)nc(-c3ccccn3)c2)nc1 [complex 7, [Cu2Cl2(4′-(2-Pyridynyl)-terpy)2](PF6)2] | 82.8 | 14.2 | 71.3 | copper % cytosol (HCT116DoxR cells [3]; Abcam kit ab109719): 0.00%; copper % mitochondria, membrane, and endoplasmic reticulum (HCT116DoxR cells [3]; Abcam kit ab109719): 35.26%; copper % nucleus, cytoskeleton, and Golgi complex (HCT116DoxR cells [3]; Abcam kit ab109719): 45.19%; copper % supernatant (HCT116DoxR cells [3]; Abcam kit ab109719): 19.55%
4 | F[P-](F)(F)(F)(F)F.F[P-](F)(F)(F)(F)F.[Cl][Cu].[Cl][Cu].c1ccc(-c2cc(-c3cccc4ccccc34)cc(-c3ccccn3)n2)nc1.c1ccc(-c2cc(-c3cccc4ccccc34)cc(-c3ccccn3)n2)nc1 [complex 1, [Cu2Cl2(4′-(1-Naphthyl)-terpy)2](PF6)2] | 24.5 | 3.8 | 19.4 | –
5 | COc1ccc2c(OC)ccc(-c3cc(-c4ccccn4)nc(-c4ccccn4)c3)c2c1 [L4] | 36.1 | – | – | –
6 | c1ccc(-c2cc(-c3ccco3)cc(-c3ccccn3)n2)nc1 [L5] | 80.0 | – | – | –
7 | COc1ccc2c(OC)ccc(-c3cc(-c4ccccn4)nc(-c4ccccn4)c3)c2c1.COc1ccc2c(OC)ccc(-c3cc(-c4ccccn4)nc(-c4ccccn4)c3)c2c1.F[P-](F)(F)(F)(F)F.F[P-](F)(F)(F)(F)F.[Cl][Cu].[Cl][Cu] [complex 4, [Cu2Cl2(4′-(4,7-Dimethoxy-1-naphthyl)-terpy)2](PF6)2] | 16.5 | 5.4 | 17.1 | –
8 | COc1ccc(-c2cc(-c3ccccn3)nc(-c3ccccn3)c2)c2ccccc12 [L3] | 4.9 | – | – | –
9 | c1ccc(-c2cc(-c3ccnc4ccccc34)cc(-c3ccccn3)n2)nc1 [L2] | 119.9 | – | – | –
10 | F[P-](F)(F)(F)(F)F.F[P-](F)(F)(F)(F)F.[Cl][Cu].[Cl][Cu].c1ccc(-c2cc(-c3ccnc4ccccc34)cc(-c3ccccn3)n2)nc1.c1ccc(-c2cc(-c3ccnc4ccccc34)cc(-c3ccccn3)n2)nc1 [complex 2, [Cu2Cl2(4′-(4-Quinolyl)-terpy)2](PF6)2] | 124.7 | 58.0 | 101.6 | intracellular localization (fluorescence) (HCT116DoxR cells [5]): mainly in the cell membrane and cytosol; internalization after 6 h (HCT116DoxR cells [5]; 6 h): almost complete; copper % Golgi complex (HCT116DoxR cells [3]; [6]): ~10% and 9.59%; copper % cytosol (HCT116DoxR cells [3]; [6]): 2.60%; copper % mitochondria, membrane, and endoplasmic reticulum (HCT116DoxR cells [3]; [6]): 31.00%; copper % nucleus and cytoskeleton (HCT116DoxR cells [3]; [6]): 33.13%; copper % other organelles (HCT116DoxR cells [3]; [6]): 0.00%; copper % supernatant (HCT116DoxR cells [3]; [6]): 23.68%
11 | CCn1c2ccccc2c2cc(-c3cc(-c4ccccn4)nc(-c4ccccn4)c3)ccc21.CCn1c2ccccc2c2cc(-c3cc(-c4ccccn4)nc(-c4ccccn4)c3)ccc21.F[P-](F)(F)(F)(F)F.F[P-](F)(F)(F)(F)F.[Cl][Cu].[Cl][Cu] [complex 8, [Cu2Cl2(4′-(N-Ethyl-9H-carbazol-3-yl)-terpy)2](PF6)2] | 38.4 | 20.0 | 75.1 | –
12 | F[P-](F)(F)(F)(F)F.F[P-](F)(F)(F)(F)F.[Cl][Cu].[Cl][Cu].c1ccc(-c2cc(-c3ccco3)cc(-c3ccccn3)n2)nc1.c1ccc(-c2cc(-c3ccco3)cc(-c3ccccn3)n2)nc1 [complex 5, [Cu2Cl2(4′-(2-Furanyl)-terpy)2](PF6)2] | 56.4 | 15.9 | 47.6 | copper % cytosol (HCT116DoxR cells [3]; Abcam kit ab109719): 2.66%; copper % mitochondria, membrane, and endoplasmic reticulum (HCT116DoxR cells [3]; Abcam kit ab109719): 20.39%; copper % nucleus, cytoskeleton, and Golgi complex (HCT116DoxR cells [3]; Abcam kit ab109719): 54.99%; copper % supernatant (HCT116DoxR cells [3]; Abcam kit ab109719): 21.96%
13 | CCn1c2ccccc2c2cc(-c3cc(-c4ccccn4)nc(-c4ccccn4)c3)ccc21 [L8] | 23.4 | – | – | –
14 | COc1ccc(-c2cc(-c3ccccn3)nc(-c3ccccn3)c2)c2ccccc12.COc1ccc(-c2cc(-c3ccccn3)nc(-c3ccccn3)c2)c2ccccc12.F[P-](F)(F)(F)(F)F.F[P-](F)(F)(F)(F)F.[Cl][Cu+].[Cl][Cu+] [complex 3, [Cu2Cl2(4′-(4-Methoxy-1-naphthyl)-terpy)2](PF6)2] | 42.2 | 9.5 | 49.8 | intracellular localization (fluorescence) (HCT116DoxR cells [5]): throughout the cell, including in the nucleus; % of internalization (copper in cellular fraction) (HCT116DoxR cells [3]): ~90%; copper % cytosol (HCT116DoxR cells [3]; Abcam kit ab109719): 9.78%; copper % mitochondria, membrane, and endoplasmic reticulum (HCT116DoxR cells [3]; Abcam kit ab109719): 33.58%; copper % nucleus, cytoskeleton, and Golgi complex (HCT116DoxR cells [3]; Abcam kit ab109719): 43.66%; copper % supernatant (HCT116DoxR cells [3]; Abcam kit ab109719): 12.98%

Values joined by “and” are separate entries in the source; they are usually repeats but may differ in a detail not shown here. Equal entries are not always repeated.
